Data from patent US20130115227A1.
No constants are given. Whether binding was seen depends on the method and setting. Some entries that bind do so weakly or less than the wild type.

Chains of the proteins cited; added tags and fusions are not shown. Residues count along the entry.
amyloid β (Aβ)-derived diffusible ligands (ADDLs) (P05067, residues 672-713): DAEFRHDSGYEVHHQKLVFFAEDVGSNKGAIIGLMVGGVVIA
monomer Aβ (Aβ1-40) (P05067, residues 672-711): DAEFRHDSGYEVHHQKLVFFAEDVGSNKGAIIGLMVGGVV

What was measured:
[1] = target: amyloid β (Aβ)-derived diffusible ligands (ADDLs) (UniProt P05067); experiment: three-pronged ELISA at a single concentration (FIG. 1)
[2] = target: amyloid β (Aβ)-derived diffusible ligands (ADDLs) (UniProt P05067); experiment: immunocytochemistry of brain sections of hAPP transgenic mice dosed IV with 125I-labeled antibody (FIGS. 10C, 10D)
[3] = target: amyloid β (Aβ)-derived diffusible ligands (ADDLs) (UniProt P05067); experiment: ELISA, bADDLs on a streptavidin-coated plate, 11 point antibody titration, anti-human IgG-Fc-HRP, A450
[4] = target: monomer Aβ (three-pronged Aβ ELISA of FIG. 1) (UniProt P05067); experiment: three-pronged Aβ ELISA, antibody as capture antibody at one concentration (not given), luminescence; background = No mAb
[5] = target: amyloid β (Aβ)-derived diffusible ligands (ADDLs) (UniProt P05067); experiment: as above
fibrillar Aβ = fibrillar Aβ (UniProt P05067); experiment: as above
[6] = target: amyloid β (Aβ)-derived diffusible ligands (ADDLs) (UniProt P05067); experiment: ELISA, plate coated with ADDLs (50 pmol/well), 12 point antibody titration, anti-human IgG-alkaline phosphatase, luminescence
[7] = target: amyloid β (Aβ)-derived diffusible ligands (ADDLs) (UniProt P05067); experiment: ELISA, eleven point titration on ADDLs and monomer Aβ1-40 (FIG. 2)
[8] = target: amyloid β (Aβ)-derived diffusible ligands (ADDLs) (UniProt P05067); experiment: three-pronged Aβ ELISA (FIG. 1)
[9] = target: amyloid β (Aβ)-derived diffusible ligands (ADDLs) (UniProt P05067); experiment: cell-based blocking assay: antibody pre-incubated with bADDLs, then added to primary hippocampal neurons; bADDLs bound to the neurons detected with streptavidin-AP, luminescence
monomer Aβ (Aβ1-40) = monomer Aβ (Aβ1-40) (UniProt P05067); experiment: ELISA, monomer Aβ1-40 on a streptavidin-coated plate, 11 point antibody titration, anti-human IgG-Fc-HRP, A450
[10] = target: amyloid β (Aβ)-derived diffusible ligands (ADDLs) (UniProt P05067); experiment: phage/Fab ELISA on ADDLs, anti-M13-HRP detection

Measured: binding

B1: anti-ADDL antibody 19.3 (antibody, human IgG2, kappa, V domains shown)
VH: EVQLVESGGGLVQPGGSLRLSCAASGFTFSSFGMHWVRQAPGKGLEWVAYISRGSSTIYYADTVKGRFTISRDNAKNSLYLQMNSLRAEDTAVYYCARGITTALDYWGQGTLVTVSS
VL: DVVMTQSPLSLPVTPGEPASISCRSSQSIVHSNGNTYLEWYLQKPGQSPQLLIYKASNRFSGVPDRFSGSGSGTDFTLKISRVEAEDVGVYYCFQGSRLGPSFGQGTKLEIKR
not listed: [10]
binds: all other assays above

B2: Fab clone 19.3 (phage-displayed) (Fab, V domains shown)
VH: EVQLVESGGGLVQPGGSLRLSCAASGFTFSSFGMHWVRQAPGKGLEWVAYISRGSSTIYYADTVKGRFTISRDNAKNSLYLQMNSLRAEDTAVYYCARGITTALDYWGQGTLVTVSS
VL: DVVMTQSPLSLPVTPGEPASISCRSSQSIVHSNGNTYLEWYLQKPGQSPQLLIYKASNRFSGVPDRFSGSGSGTDFTLKISRVEAEDVGVYYCFQGSRLGPSFGQGTKLEIK
binds: [10]
